In US20030092631A1 (Genentech, published 2003) one finds binding data, which are given here for one substance.

Amino acid sequences for entries named in this document (tags omitted). Residues count along the entry.
UniProt P05019, residues 49-118: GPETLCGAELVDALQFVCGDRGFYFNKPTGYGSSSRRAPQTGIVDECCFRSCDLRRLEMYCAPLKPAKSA

In the assay the target is IGF-1 (human, UniProt P05019 49-118). The assay is described as follows: phage ELISA, IGF-1 on plate. The protocol:
From each round, individual peptide-displaying phage were isolated and analyzed for binding to IGF-1 in a phage ELISA by capturing the peptide-phage with IGF-1 immobilized on a plate, and detecting bound phage (see below). As a control for non-specific binding, the phage were also analyzed in a phage ELISA that used plates coated with BSA. […]
MAXISORP™ immunoplates (96-well) were coated with capture target protein for 2 hours at room temperature (100 μL at 5 μg/mL in 50 mM carbonate buffer, pH 9.6). The plates were then blocked for 1 h with 0.2% BSA in phosphate-buffered saline (PBS) and washed eight times with PBS, 0.05% TWEEN®-20 detergent. Phage particles were serially diluted into BSA blocking buffer and 100 μL were transferred to coated wells. After I h, plates were washed eight times with PBS, 0.05% TWEEN®-20 detergent, incubated with 100 μL of 1:3000 horse radish peroxidase/anti-M 13 antibody conjugate in BSA blocking buffer for 30 min. and then washed eight times with PBS, 0.05% TWEEN®-20 detergent and two times with PBS. Plates were developed using a tetramethylbenzidine substrate (TMB, Kirkegaard and Perry, Gaithersburg, Md.), stopped with 1.0 M H3PO₄, and read spectrophotometrically at 450 nm.

Results are given in words; binding and its absence hold for the method and conditions named. Some entries that bind do so weakly or less than the wild type.

Regarding “… (from UniProt P01241 27-217) (peptide)”, the binding result is given as “binds”.
